Results are given in words; binding and its absence hold for the method and conditions named. In cells and extracts the contact can be indirect.

The experiment concerns the target YFP-PARP14 full length (human) (UniProt Q460N5). Nature of the experiment: co-IP; GFP-trap agarose (ChromoTek) on lysates of transfected HEK293FT cells treated with vehicle or IFNγ (100 or 200 U/mL, 24 h); lysis in 10 mM Tris pH 7.5, 150 mM NaCl, 0.5 mM EDTA, 0.5% NP40; 1 h with beads, on ice or at 4 °C; endogenous partners detected by western blot.

In the case of “PARP9 (from UniProt Q8IXQ6 1-854) (other; other documents disagree on this pair)”, the binding entry was “no binding”.
